From PMC11218510, “Functional analysis of the methylerythritol phosphate pathway terminal enzymes IspG and IspH from Zymomonas mobilis” (Microbiology Spectrum, 2024)
Results are given in words; binding and its absence hold for the method and conditions named. Tags and fused reporters may be left off the sequences shown.

Columns and labels:
[1] = target: Z. mobilis Strep-tag II IspH (Z. mobilis) (UniProt Q5NP61); assay: native gel or EMSA; 4%-16% Bis-Tris Native gel; 50 μM IspG, 50 μM IspH and a mixture of 25 μM each; both purified
[2] = target: T1, Z. mobilis Strep-tag II IspG (Z. mobilis) (UniProt Q5NR50); assay: as above
T1 sequence: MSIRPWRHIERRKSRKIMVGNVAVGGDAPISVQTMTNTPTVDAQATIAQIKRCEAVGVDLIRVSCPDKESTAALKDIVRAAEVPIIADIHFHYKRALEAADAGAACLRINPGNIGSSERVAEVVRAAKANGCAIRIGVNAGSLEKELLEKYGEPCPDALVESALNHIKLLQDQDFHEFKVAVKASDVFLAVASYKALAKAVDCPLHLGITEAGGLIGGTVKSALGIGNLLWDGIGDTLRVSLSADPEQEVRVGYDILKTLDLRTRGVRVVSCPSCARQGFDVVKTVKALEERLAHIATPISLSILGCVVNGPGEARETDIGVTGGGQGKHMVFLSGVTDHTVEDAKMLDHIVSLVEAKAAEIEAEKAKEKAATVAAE

[3] = target: T1, Z. mobilis Strep-tag II IspG (Z. mobilis); assay: SEC; Superdex 200 Increase 10/300 GL, 50 mM Tris-HCl (pH 7.5), 150 mM NaCl, anaerobic; equimolar mixture (25 μM each) compared with each protein alone (50 μM); A280; both purified
[4] = target: T2, Z. mobilis IspG fused downstream of T18 (pUT18C-ispGZM) (Z. mobilis) (UniProt Q5NR50); assay: two-hybrid; bacterial adenylate cyclase two-hybrid (BACTH) in E. coli BTH101; T25 fusions on pKT25, T18 fusions on pUT18C; colonies on X-gal, IPTG (500 μM) plates under aerobic and anaerobic conditions
T2 sequence: T1 sequence

[5] = target: T3, E. coli IspG fused downstream of T18 (pUT18C-ispGEC) (E. coli) (UniProt P62620); assay: as above
T3 sequence: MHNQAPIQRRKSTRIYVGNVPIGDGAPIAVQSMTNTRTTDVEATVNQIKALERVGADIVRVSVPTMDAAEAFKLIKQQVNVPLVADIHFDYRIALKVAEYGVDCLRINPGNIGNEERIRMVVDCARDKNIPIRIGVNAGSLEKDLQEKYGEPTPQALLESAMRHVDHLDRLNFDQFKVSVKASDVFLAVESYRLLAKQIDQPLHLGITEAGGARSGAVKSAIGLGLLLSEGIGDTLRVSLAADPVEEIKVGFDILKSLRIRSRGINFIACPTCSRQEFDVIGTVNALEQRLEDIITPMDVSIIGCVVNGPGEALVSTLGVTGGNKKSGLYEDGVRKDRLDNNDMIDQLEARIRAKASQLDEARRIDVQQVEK

B1: Z. mobilis Strep-tag II IspH (enzyme, UniProt Q5NP61 1-340)
chain: MIKIILAQPRGFCAGVIRAIEIVDQALDRVGAPVYVRHEIVHNRHVVDTLKAKGAVFVEELSEVPPGEVTVFSAHGVARTVQKEAEERGLPVVDATCPLVNKVHAQGRRYLSHGRTLILIGHAGHPEIEGTLGQIDGPVHLVGSAEQVDSLDIPSDTPVAFITQTTLSVDDTRSVIAALRKKFTDVIGPDTSDICYATQNRQAAVRDLCKQSDLILVVGSPNSSNSNRLREIGLEEGLPSYLIADGSEIDPVWFEGINTVGLTAGASAPEELVQSVITAIRALGPVTVEQLDGVEEKIAFRLPPTLRHLKARNAAHNNLDNKTAASEEADSLSNDTEQEA
In the case of B1, the binding [1] is reported as “no binding”, the binding [2] is reported as “no binding (tested: 25 μM each)” and the binding [3] is reported as “no binding (tested: 25 μM each)”.

B2: Z. mobilis IspH fused downstream of T25 (pKT25-ispHZM) (enzyme, UniProt Q5NP61 1-340)
chain: B1 chain
In the case of B2, the binding [4] is reported as “no binding”.

B3: E. coli IspH fused downstream of T25 (pKT25-ispHEC) (enzyme, UniProt P62623 1-316)
chain: MQILLANPRGFCAGVDRAISIVENALAIYGAPIYVRHEVVHNRYVVDSLRERGAIFIEQISEVPDGAILIFSAHGVSQAVRNEAKSRDLTVFDATCPLVTKVHMEVARASRRGEESILIGHAGHPEVEGTMGQYSNPEGGMYLVESPDDVWKLTVKNEEKLSFMTQTTLSVDDTSDVIDALRKRFPKIVGPRKDDICYATTNRQEAVRALAEQAEVVLVVGSKNSSNSNRLAELAQRMGKRAFLIDDAKDIQEEWVKEVKCVGVTAGASAPDILVQNVVARLQQLGGGEAIPLEGREENIVFEVPKELRVDIREVD
In the case of B3, the binding [5] is reported as “no binding”.
